Data reported in the supplement of paper PMC10849652.
The list shows a part of the results.

Amino acid sequences for entries named in this document (tags omitted). A change or cut given only in a name is not applied to a line headed by its entry.
UniProt P41134: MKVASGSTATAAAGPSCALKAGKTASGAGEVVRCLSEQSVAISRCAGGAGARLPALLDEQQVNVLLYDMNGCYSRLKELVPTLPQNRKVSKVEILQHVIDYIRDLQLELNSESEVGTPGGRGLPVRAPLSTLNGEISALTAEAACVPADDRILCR
UniProt O75054: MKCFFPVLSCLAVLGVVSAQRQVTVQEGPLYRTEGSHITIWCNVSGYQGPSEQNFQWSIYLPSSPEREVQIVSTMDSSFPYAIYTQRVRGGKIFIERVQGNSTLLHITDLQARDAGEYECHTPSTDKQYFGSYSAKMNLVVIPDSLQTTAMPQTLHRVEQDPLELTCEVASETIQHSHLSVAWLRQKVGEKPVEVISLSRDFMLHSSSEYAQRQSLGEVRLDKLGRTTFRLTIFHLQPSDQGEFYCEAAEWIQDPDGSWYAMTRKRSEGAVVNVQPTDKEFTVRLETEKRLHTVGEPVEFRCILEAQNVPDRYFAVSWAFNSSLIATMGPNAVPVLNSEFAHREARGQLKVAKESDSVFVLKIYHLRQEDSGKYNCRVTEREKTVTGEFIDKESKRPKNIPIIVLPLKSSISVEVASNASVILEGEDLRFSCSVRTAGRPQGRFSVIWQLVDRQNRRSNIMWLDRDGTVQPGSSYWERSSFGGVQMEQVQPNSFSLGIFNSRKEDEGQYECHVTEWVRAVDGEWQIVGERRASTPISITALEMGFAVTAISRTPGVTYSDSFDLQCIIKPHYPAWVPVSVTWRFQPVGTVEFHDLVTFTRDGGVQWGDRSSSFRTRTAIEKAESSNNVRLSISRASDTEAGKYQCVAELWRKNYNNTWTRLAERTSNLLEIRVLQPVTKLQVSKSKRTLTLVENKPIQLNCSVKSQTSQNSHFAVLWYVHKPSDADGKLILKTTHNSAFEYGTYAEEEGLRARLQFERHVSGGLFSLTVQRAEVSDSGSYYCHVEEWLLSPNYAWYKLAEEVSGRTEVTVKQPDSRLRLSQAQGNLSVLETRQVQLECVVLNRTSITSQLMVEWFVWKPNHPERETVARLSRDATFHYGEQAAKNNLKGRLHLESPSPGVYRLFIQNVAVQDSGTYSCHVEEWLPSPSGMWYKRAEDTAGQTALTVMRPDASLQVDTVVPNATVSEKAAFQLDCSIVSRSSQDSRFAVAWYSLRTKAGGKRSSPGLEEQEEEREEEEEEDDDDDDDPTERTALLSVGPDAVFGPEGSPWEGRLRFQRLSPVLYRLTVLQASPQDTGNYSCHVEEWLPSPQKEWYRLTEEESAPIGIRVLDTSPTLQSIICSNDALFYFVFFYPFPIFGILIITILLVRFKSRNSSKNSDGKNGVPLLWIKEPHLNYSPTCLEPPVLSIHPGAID
UniProt Q9Y547: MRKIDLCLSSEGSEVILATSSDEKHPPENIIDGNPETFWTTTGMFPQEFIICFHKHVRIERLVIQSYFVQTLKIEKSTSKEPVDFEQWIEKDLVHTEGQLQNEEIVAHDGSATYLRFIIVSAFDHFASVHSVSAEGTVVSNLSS
UniProt P78318: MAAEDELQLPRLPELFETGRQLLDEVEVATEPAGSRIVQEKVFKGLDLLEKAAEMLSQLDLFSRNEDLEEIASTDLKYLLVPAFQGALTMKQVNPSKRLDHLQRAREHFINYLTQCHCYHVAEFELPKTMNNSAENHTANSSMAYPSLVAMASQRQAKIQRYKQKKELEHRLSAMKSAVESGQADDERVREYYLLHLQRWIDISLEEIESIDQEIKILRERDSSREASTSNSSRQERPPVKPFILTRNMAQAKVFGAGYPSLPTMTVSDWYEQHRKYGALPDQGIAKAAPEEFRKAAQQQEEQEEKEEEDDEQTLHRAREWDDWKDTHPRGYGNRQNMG
UniProt P22692: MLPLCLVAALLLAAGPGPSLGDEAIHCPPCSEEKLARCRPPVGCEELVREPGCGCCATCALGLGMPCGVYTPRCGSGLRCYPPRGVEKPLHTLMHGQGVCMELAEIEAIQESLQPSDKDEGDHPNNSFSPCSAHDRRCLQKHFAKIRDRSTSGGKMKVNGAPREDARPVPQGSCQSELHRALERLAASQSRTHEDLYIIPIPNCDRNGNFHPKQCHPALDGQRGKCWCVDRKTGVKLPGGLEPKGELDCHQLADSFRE
UniProt P01876, whole entry, looked up: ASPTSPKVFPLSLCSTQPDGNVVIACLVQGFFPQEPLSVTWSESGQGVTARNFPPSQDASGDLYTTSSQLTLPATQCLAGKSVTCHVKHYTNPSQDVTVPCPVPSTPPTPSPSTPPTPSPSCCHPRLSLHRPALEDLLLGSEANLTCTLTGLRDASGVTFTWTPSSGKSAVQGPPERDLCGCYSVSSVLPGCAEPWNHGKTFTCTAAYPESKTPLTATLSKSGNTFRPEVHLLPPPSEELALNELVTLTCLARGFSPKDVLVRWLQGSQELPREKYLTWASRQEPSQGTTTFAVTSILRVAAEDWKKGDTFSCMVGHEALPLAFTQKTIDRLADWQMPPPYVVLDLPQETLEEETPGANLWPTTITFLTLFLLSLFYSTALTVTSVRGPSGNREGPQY
UniProt Q96LB3: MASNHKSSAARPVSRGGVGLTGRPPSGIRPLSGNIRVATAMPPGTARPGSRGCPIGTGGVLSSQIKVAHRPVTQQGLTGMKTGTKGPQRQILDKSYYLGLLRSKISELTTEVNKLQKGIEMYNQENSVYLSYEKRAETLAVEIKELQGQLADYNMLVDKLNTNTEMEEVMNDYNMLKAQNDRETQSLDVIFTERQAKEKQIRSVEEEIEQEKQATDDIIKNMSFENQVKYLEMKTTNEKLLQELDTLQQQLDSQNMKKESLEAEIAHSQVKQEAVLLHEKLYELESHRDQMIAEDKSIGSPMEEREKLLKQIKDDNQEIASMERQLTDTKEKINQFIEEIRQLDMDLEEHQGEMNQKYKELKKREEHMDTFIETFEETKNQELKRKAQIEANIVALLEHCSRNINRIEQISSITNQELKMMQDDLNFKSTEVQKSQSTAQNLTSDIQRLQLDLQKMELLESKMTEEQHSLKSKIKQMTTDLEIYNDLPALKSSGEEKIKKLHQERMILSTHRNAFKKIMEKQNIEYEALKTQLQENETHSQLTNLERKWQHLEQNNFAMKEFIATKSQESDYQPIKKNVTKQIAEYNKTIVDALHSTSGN
UniProt Q9NX62: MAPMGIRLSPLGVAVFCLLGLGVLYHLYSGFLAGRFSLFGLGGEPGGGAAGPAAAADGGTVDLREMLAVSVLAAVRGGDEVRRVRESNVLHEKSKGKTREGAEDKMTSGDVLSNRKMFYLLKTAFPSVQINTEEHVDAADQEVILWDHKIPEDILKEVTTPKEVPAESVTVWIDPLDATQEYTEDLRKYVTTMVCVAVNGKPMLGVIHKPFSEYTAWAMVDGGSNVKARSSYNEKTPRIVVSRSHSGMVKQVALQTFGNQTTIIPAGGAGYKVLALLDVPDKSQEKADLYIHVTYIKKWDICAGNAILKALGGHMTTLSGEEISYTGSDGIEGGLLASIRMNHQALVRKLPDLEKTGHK
UniProt Q12906, whole entry, looked up: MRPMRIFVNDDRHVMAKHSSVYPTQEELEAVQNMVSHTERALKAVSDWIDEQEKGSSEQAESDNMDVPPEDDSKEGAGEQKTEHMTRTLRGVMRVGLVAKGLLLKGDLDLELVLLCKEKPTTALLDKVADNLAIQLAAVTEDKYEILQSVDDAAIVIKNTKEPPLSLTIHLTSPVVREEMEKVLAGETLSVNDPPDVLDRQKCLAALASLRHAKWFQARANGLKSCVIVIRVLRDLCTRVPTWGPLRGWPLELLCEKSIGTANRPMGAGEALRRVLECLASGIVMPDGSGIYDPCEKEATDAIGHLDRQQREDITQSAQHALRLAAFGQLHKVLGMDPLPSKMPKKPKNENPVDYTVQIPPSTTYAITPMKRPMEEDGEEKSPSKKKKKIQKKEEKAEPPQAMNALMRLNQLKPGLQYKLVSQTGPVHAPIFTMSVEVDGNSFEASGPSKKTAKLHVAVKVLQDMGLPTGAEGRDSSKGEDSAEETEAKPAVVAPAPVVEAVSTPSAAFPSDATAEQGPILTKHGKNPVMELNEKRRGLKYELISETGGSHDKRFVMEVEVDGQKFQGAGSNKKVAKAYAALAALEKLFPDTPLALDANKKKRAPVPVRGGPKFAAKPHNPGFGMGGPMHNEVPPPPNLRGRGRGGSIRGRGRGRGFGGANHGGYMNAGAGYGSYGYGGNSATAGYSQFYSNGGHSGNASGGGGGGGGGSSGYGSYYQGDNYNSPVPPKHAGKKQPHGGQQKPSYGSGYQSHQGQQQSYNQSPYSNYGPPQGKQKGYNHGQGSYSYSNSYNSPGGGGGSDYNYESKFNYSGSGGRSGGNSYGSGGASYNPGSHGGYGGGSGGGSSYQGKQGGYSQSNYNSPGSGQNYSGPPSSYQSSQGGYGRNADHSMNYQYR
UniProt Q96EW2: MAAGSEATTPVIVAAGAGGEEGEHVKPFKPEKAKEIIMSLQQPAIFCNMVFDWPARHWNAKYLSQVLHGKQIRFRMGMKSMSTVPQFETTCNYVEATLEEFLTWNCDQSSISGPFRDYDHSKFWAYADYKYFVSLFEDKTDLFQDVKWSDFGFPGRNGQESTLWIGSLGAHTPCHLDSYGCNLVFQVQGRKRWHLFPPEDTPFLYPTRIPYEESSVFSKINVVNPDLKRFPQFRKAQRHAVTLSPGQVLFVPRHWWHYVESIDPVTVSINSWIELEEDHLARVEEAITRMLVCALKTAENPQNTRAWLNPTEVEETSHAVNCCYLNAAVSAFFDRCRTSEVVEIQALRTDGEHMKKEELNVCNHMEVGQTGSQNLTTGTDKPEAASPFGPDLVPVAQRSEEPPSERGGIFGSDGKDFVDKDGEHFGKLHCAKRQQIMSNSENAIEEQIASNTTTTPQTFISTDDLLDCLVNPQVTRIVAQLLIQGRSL
UniProt P13598: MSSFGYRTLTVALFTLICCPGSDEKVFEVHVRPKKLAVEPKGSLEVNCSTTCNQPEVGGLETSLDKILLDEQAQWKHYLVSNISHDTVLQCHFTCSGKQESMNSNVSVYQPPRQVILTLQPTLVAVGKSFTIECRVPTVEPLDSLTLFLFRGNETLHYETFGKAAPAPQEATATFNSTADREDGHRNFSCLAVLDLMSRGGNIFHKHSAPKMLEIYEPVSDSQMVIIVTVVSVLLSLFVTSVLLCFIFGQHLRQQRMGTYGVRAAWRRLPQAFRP
UniProt Q8NBZ0, whole entry, looked up: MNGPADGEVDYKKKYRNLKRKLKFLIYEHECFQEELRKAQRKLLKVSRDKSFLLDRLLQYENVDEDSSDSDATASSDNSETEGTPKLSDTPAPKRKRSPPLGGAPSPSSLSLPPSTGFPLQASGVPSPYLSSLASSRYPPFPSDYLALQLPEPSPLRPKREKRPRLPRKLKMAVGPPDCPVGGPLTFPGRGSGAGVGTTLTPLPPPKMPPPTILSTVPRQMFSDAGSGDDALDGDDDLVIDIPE
UniProt Q9Y6M1: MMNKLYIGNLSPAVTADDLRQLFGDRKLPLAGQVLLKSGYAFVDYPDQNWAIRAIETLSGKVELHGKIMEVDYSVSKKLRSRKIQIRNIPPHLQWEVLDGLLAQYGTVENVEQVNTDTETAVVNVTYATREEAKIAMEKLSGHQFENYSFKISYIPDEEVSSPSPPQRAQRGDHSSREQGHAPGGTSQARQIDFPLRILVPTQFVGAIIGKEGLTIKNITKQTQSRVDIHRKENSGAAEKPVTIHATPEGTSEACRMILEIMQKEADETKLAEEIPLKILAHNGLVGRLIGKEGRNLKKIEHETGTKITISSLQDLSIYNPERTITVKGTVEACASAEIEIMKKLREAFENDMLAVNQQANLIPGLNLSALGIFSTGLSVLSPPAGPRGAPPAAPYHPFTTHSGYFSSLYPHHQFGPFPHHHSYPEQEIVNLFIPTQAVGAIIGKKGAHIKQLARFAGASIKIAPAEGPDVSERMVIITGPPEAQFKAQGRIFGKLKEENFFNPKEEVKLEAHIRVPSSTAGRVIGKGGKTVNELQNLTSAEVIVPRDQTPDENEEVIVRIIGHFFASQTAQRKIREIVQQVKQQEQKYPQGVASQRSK
UniProt Q9H6K1: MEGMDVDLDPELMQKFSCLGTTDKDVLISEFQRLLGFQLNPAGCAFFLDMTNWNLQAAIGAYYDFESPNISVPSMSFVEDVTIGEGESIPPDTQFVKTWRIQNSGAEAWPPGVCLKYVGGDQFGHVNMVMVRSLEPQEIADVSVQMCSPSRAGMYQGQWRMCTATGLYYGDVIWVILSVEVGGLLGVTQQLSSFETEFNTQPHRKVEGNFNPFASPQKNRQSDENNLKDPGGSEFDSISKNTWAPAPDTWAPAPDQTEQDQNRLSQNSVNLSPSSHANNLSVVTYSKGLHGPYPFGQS
UniProt Q96LU5: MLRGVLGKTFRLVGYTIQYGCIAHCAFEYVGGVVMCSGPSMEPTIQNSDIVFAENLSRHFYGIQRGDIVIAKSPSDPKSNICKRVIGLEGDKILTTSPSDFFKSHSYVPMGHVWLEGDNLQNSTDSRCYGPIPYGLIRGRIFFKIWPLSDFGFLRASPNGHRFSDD

Each target was assayed with NC(=O)Nc1cc(-c2cccc(F)c2)sc1C(=O)N[C@H]1CCCNC1 (assay: log2 fold change, soluble protein after heating vs DMSO (PISA); higher = thermal stabilisation; K562 lysate, 10 uM; active = over 0.2 and 3.5 SD of the protein, either way, in both replicates (recomputed)).
In short: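 Values give the log-two fold change in thermal stability against solvent controls, from duplicates. Crude K562 extract at 1 mg/mL protein, made by dounce homogenisation in PBS pH 7.4 with 1 mM MgCl2, was treated with 10 μM compound for 30 min. After 3 min heating across 48°C-58°C, aliquots were pooled, adjusted to 0.5% NP-40 at 4°C and centrifuged at 21,000xg for 90 min. The supernatant was measured by TMTpro 16plex LC-MS/MS with channel sums equalised.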

log2 fold change, inactive:
IL18 (UniProt Q14116) 0.009, IK (UniProt Q13123) 0.03, ID1 (UniProt P41134) 0.057, IGSF3 (UniProt O75054) 0.03, IMPDH2 (UniProt H0Y4R1) 0.02, HSPB11 (UniProt Q9Y547) 0.012, IBTK (UniProt Q9P2D0) 0.049, IGBP1 (UniProt P78318) -0.017, INPP4A (UniProt Q96PE3) 0.032, IGFBP4 (UniProt P22692) -0.021, INPP5B (UniProt P32019) 0.026, HTT (UniProt P42858) 0.041, HYOU1 (UniProt J3QL06) -0.056, IGHA1 (UniProt P01876) -0.11, IFT57 (UniProt Q9NWB7) 0.06, IFT74 (UniProt Q96LB3) 0.027, IDH3G (UniProt P51553) -0.026, IMPAD1 (UniProt Q9NX62) -0.044, ILF3 isoform 7 (UniProt Q12906) -0.01, HSPBAP1 (UniProt Q96EW2) 0.024, ICAM2 (UniProt P13598) -0.018, INO80E (UniProt Q8NBZ0) 0.152, IGHMBP2 (UniProt P38935) 0.147, IGHG1 (UniProt P01857) -0.178, INTS1 (UniProt Q8N201) 0.016, IL27RA (UniProt Q6UWB1) -0.098, HSPA8 (UniProt E9PN89) 0, IGF2BP2 (UniProt Q9Y6M1) 0.06, ILRUN (UniProt Q9H6K1) 0.033, IMMP1L (UniProt Q96LU5) 0.008, IDH2 (UniProt P48735) 0.044, ICE2 (UniProt Q659A1) 0.026, IFT122 isoform 5 (UniProt Q9HBG6) -0.343
